Values of other authors in patent publication US9968621B2, “Parenteral compositions of celecoxib” (Dr. Reddy's Laboratories Ltd., priority 2014, dated 2018).

SMILES: Cc1ccc(-c2cc(C(F)(F)F)nn2-c2ccc(S(N)(=O)=O)cc2)cc1 [Celecoxib, 4-[5-(4-methylphenyl)-3-(trifluoromethyl)-1H-pyrazol-1-yl] benzenesulfonamide]
- Solubility in water: essentially insoluble in water
